Test results taken from US20230416345A1, “NEW TYPE II COLLAGEN BINDING PROTEINS” (Navigo Proteins GmbH, priority 2020, published 2023).

What was measured:
[1] = molecular target: porcine collagen type II (porcine); assay: Immunohistochemistry on pig eye sections; target in the tissue taken as type II collagen
[2] = molecular target: porcine collagen type II (porcine); assay: ELISA, coated collagen, anti-StrepTag detection
[3] = molecular target: rabbit collagen type II (rabbit); assay: ELISA, coated collagen, anti-StrepTag detection

- binding [1]: binds
- binding [2]: binds
- binding [3]: binds
B1: CID 212001 (SEQ ID NO: 41), tetramer of SEQ ID NO: 2 (designed binder, not shown: small tags and cut ends)
chain: IAAKFDEAQSAADSEILHLPNLTEQQRHYFRRWLSDDPSVSTHILTQAQHLNDDQAPKIAAKFDEAQSAADSEILHLPNLTEQQRHYFRRWLSDDPSVSTHILTQAQHLNDDQAPKIAAKFDEAQSAADSEILHLPNLTEQQRHYFRRWLSDDPSVSTHILTQAQHLNDDQAPKIAAKFDEAQSAADSEILHLPNLTEQQRHYFRRWLSDDPSVSTHILTQAQHLNDDQAPKSAWSHPQFEK

- binding [1]: binds
B2: CID 212000 (SEQ ID NO: 39), dimer of SEQ ID NO: 2 with linker between the monomers (designed binder, not shown: small tags and cut ends)
chain: IAAKFDEAQSAADSEILHLPNLTEQQRHYFRRWLSDDPSVSTHILTQAQHLNDDQAPKGGGGSGGGGSGGGGSGGGGSIAAKFDEAQSAADSEILHLPNLTEQQRHYFRRWLSDDPSVSTHILTQAQHLNDDQAPKSAWSHPQFEK

- binding [1]: binds
B3: CID 211999 (SEQ ID NO: 38), dimer of SEQ ID NO: 2 (directly joint monomers) (designed binder, not shown: small tags and cut ends)
chain: IAAKFDEAQSAADSEILHLPNLTEQQRHYFRRWLSDDPSVSTHILTQAQHLNDDQAPKIAAKFDEAQSAADSEILHLPNLTEQQRHYFRRWLSDDPSVSTHILTQAQHLNDDQAPKSAWSHPQFEK

These are yes or no findings as the source states them, for the method shown. Binding calls can cover weak binding; strength is not graded here. Each block holds one binder with its values, some of them ahead of it.
